In this series the test system is expanded cord blood CD34+ cells, granulocyte (CD15+/CD14−) and monocyte (CD14+/CD15−) lineage. Description: Myeloid (granulocyte and monocyte) Differentiation Culture after Expansion Culture (Example 38). Type of series: cell-based, human. To be noted: for therapeutic doses of granulocyte progenitors per banked cord blood unit: 5×10^10 cells per dose. As for the experimental part: At days 21 and 63, CD34+ enriched cells were placed into Differentiation Cultures, described below.
Differentiation cultures were initiated using Erythroid, Myeloid (granulocyte and monocyte), and Megakaryocyte HemaTox kits from STEMCELL technologies following the manufacturer's instructions. In brief, lineage media was prepared by adding cytokine cocktails for erythrocyte (SCF, IL-3, and EPO), myeloid (i.e. mixed granulocyte/monocyte, SCF, TPO, G-CSF, and GM-CSF) or megakaryocyte (SCF, IL-6, IL-9 and TPO) lineage differentiation to their respective kits' media, then adding approximately 30-100 CD34+ cells for erythroid or myeloid cultures, or 300-1000 CD34+ cells for megakaryoid cultures. Exact cell numbers plated were quantified for later analysis. All incubations for Differentiation Culture took place at 3% oxygen (controlled by nitrogen) and 5% CO2.
Following seven days of erythroid or myeloid cultures, or ten days for megakaryoid cultures, differentiated cell output was quantified using flow cytometry. Erythroid output was quantified using anti-CD71 and anti-CD235a antibodies, and megakaryocyte lineage output was quantified using anti-CD41 and anti-CD42b antibodies. Granulocyte and monocyte lineage outputs were assessed in tandem, using CD14 and CD15 antibodies, with granulocyte lineage cells being CD15+/CD14−, and monocyte lineage cells being CD14+/CD15−.
A number of quantities were calculated to assess the effect of expansion of CD34+ cells in the +Formula I Condition on the output of lineage differentiated cells. “Per-Assayed-CD34+ Cell Output” describes the output of differentiated cells per CD34+ cell placed into Differentiation Culture, and is calculated by dividing the total number of lineage-positive cells by the input CD34+ cell number quantified at Differentiation Culture initiation at day 1, 21, or 63. “Per-expanded-day-1-CD34+ cell output” describes the number of differentiated cells of a given lineage that may be produced from a single CD34+ cell following both Expansion Cell Culture (if expanded) followed by Differentiation Culture, and is calculated by multiplying Per-Assayed-CD34+ Cell Output by the fold expansion of CD34+ cells from day 1 to the day of analysis, either day 21 or day 63. […] We calculated therapeutic units for granulocyte precursors, using 50 billion (5×10^10) cells per dose as a conservative benchmark (Valentini, C. G., Farina, F., Pagano, L., and Teofili, L. (2017). Granulocyte Transfusions: A Critical Reappraisal. Biol. Blood Marrow Transplant. 23, 2034-2041). […]

The values that follow come from US20220315895A1, “METHODS OF MAKING OLIGOPOTENT AND UNIPOTENT PRECURSORS” (Transfusion Health, LLC, priority 2019, published 2022).

Turning to `CC(C)(C)C(=O)Nc1ccc2c(c1)C(O)c1ccccc1-2` (stereo not shown) [Compound 1.010], the “therapeutic doses of granulocyte progenitors per banked cord blood unit” value is, setting by setting: (21 days of Formula I Expansion Culture, 2×10^6 CD34+ cells per cord) 2.8 doses; (63 days of Formula I Expansion Culture) ~530 doses. The “granulocyte progenitor doses relative to Control-expanded cells” value by setting is: (day 21) “three”; (day 63) 20 fold.
